The assay has as its system BDF1 mice, P288 leukemia ip, survival T/C. As to the kind of experiment: NCI In Vivo Anticancer Drug Screen. Data for tumor model P288 Lymphocytic Leukemia (intraperitoneal) in B6D2F1 (BDF1) mice. The following applies: T/C endpoint: survival time, mean or median, higher T/C = longer survival. As for the experimental part: The antitumor activity of compounds was measured in mice bearing transplantable tumors. Survival or tumor size were measured and the results are expressed as the measurement made in the treated group (T) divided by the measurement made in the vehicle treated control group (C). The tumor model used in this assay is P288 Lymphocytic Leukemia (intraperitoneal) in B6D2F1 (BDF1) mice

The mark [1] stands for this setting: dose: 7.5 mg/kg/injection, schedule: Q01DX Z (ip), vehicle: carboxymethylcellulose (CMC).

Data on 16 compounds can be found in PubChem BioAssay AID216 (DTP/NCI, 2004).

Structures are written as SMILES. The list shows only some results of the screen, not a fair sample: it gathers tests that were run many times, whatever their T/C, doses with no T/C, and many T/C values between a quarter and a half above the control. Other doses and runs of a compound stand elsewhere. T/C is the treated group as % of the vehicle group. Some entries give survivors of the animals treated and no T/C: the source holds a T/C of zero for them, seemingly a mark for toxic or unscored doses. Some survivor counts are full or nearly so, which does not show that the dose was tolerated: survival well below the control is almost never listed, so the zero probably covers shortened survival too. Survivors were counted at the toxicity check, usually on the fifth day, unless a day is given; later deaths do not show. Schedule codes are those of the source, read here as Q, the interval in days (D) or hours (H), X, the number of doses. Some entries hold several experiments; the results are listed from low to high. Some schedules carry Z or #; the key to these is not given. For survival time, this PubChem deposit counts one and a half times the control or more as active, and values a quarter to a half above the control carry no call in these data; other NCI protocols may use other cut-offs.

In the case of `O=C(Nc1ccc(C2=NCCCN2)cc1)c1ccc(NC(=O)c2ccc(C3=NCCCN3)cc2)cc1`, the T/C is 133 % of control (dose: 1.0 mg/kg/injection, schedule: Q01DX010 (ip), vehicle: other); 137 % of control (dose: 2.0 mg/kg/injection, schedule: Q01DX010 (ip), vehicle: other); 141 % of control (dose: 15.6 mg/kg/injection, schedule: Q01DX Z (ip), vehicle: carboxymethylcellulose (CMC)). Besides, the survivor count was 6 of 6 (dose: 16.0 mg/kg/injection, schedule: Q01DX010 (ip), vehicle: other); 0 of 6 (dose: 62.5 mg/kg/injection, schedule: Q01DX Z (ip), vehicle: carboxymethylcellulose (CMC)); 0 of 6 (dose: 125.0 mg/kg/injection, schedule: Q01DX Z (ip), vehicle: carboxymethylcellulose (CMC)).
As for `COC12C(COC(N)=O)C3=C(C(=O)C(C)=C(N)C3=O)N1CC1C2N1C` (stereo unspecified), the T/C (dose: 2.5 mg/kg/injection, schedule: Q01DX Z (ip), vehicle: carboxymethylcellulose (CMC)) was 128 and 134 % of control.
In the case of `CS(=O)(=O)OCCCl`, the survivor count (dose: 25.0 mg/kg/injection, schedule: Q01DX Z (ip), vehicle: carboxymethylcellulose (CMC)) is recorded as 6 of 6; the survivor count (dose: 50.0 mg/kg/injection, schedule: Q01DX Z (ip), vehicle: carboxymethylcellulose (CMC)) was 6 of 6; the survivor count (dose: 100.0 mg/kg/injection, schedule: Q01DX Z (ip), vehicle: carboxymethylcellulose (CMC)) was 5 of 6.
In the case of `C[C@H]1C(=O)O[C@@H]2CCN3CC=C(COC(=O)[C@](C)(O)[C@@]1(C)O)[C@H]23`, the survivor count by setting is: (dose: 0.99 mg/kg/injection, schedule: Q01DX Z (ip), vehicle: carboxymethylcellulose (CMC)) 6 of 6; (dose: 1.88 mg/kg/injection, schedule: Q01DX Z (ip), vehicle: carboxymethylcellulose (CMC)) 6 of 6; (dose: 3.75 mg/kg/injection, schedule: Q01DX Z (ip), vehicle: carboxymethylcellulose (CMC)) 6 of 6; under setting [1], 6 of 6; (dose: 15.0 mg/kg/injection, schedule: Q01DX Z (ip), vehicle: carboxymethylcellulose (CMC)) 6 of 6; (dose: 30.0 mg/kg/injection, schedule: Q01DX Z (ip), vehicle: carboxymethylcellulose (CMC)) 6 of 6. Besides, the survivor count is on record as 6 of 6 (dose: 60.0 mg/kg/injection, schedule: Q01DX Z (ip), vehicle: carboxymethylcellulose (CMC)) and 4 of 6 (dose: 120.0 mg/kg/injection, schedule: Q01DX Z (ip), vehicle: carboxymethylcellulose (CMC)). The T/C (dose: 6.25 mg/kg/injection, schedule: Q01DX010 (ip), vehicle: saline) is 126 % of control.
With `CN(C)c1ccc(/C=C/c2ccnc3ccccc23)cc1`, the T/C (dose: 0.4 mg/kg/injection, schedule: Q01DX Z (ip), vehicle: water) was 126 % of control. The survivor count by setting is: (dose: 5.0 mg/kg/injection, schedule: Q01DX010 (ip), vehicle: saline) 6 of 6; (dose: 12.5 mg/kg/injection, schedule: Q01DX Z (ip), vehicle: water) 6 of 6; (dose: 20.0 mg/kg/injection, schedule: Q01DX010 (ip), vehicle: saline) 6 of 6; (dose: 25.0 mg/kg/injection, schedule: Q01DX Z (ip), vehicle: water) 6 of 6; (dose: 50.0 mg/kg/injection, schedule: Q01DX Z (ip), vehicle: water) 6 of 6; (dose: 100.0 mg/kg/injection, schedule: Q01DX Z (ip), vehicle: water) 4 of 6.
In the case of `O=P1(N(CCCl)CCCl)NCCCO1` (stereo unspecified), the survivor count is 6 of 6 (dose: 11.3 mg/kg/injection, schedule: Q01DX010 (ip), vehicle: saline) and 6 of 6 (dose: 180.0 mg/kg/injection, schedule: Q01DX010 (ip), vehicle: saline). In addition, the T/C by setting is: (dose: 90.0 mg/kg/injection, schedule: Q01DX010 (ip), vehicle: saline) 132 % of control; (dose: 100.0 mg/kg/injection, schedule: Q01DX Z (ip), vehicle: saline) 132 % of control.
As to `COc1cc(-c2ccc(Nc3ccccc3C(=O)O)c(OC)c2)ccc1N`, the T/C (dose: 40.0 mg/kg/injection, schedule: Q01DX010 (ip), vehicle: saline) is 129 % of control. For the same compound, the survivor count (dose: 160.0 mg/kg/injection, schedule: Q01DX010 (ip), vehicle: saline) is 2 of 7.
On to `[I][Hg][CH2]C1COC([CH2][Hg][I])CO1` (stereo unspecified), for which the survivor count under setting [1] is 6 of 6.
Regarding `O=C(Nc1ccc(NC(=O)Nc2cccc(C3=NCCN3)c2)cc1)Nc1cccc(C2=NCCN2)c1`, the T/C was 147 % of control (dose: 240.0 mg/kg/injection, schedule: Q01DX010 (ip), vehicle: saline) and 147 % of control (dose: 480.0 mg/kg/injection, schedule: Q01DX010 (ip), vehicle: saline).
Take `CCOC(N)=O`: for the setting “dose: 250.0 mg/kg/injection, schedule: Q01DX010 (ip), vehicle: saline”, the T/C was 126 % of control. The survivor count (dose: 1000.0 mg/kg/injection, schedule: Q01DX010 (ip), vehicle: saline) was 5 of 6 and 6 of 6.
Take `Nc1nc(N)c2nc(CNc3ccc(C(=O)NC(CCC(=O)O)C(=O)O)cc3)cnc2n1` (stereo unspecified): the survivor count (dose: 0.06 mg/kg/injection, schedule: Q01DX Z (ip), vehicle: saline) is reported as 5 of 6; the survivor count (dose: 0.12 mg/kg/injection, schedule: Q01DX Z (ip), vehicle: saline) is listed as 6 of 6; the survivor count (dose: 0.25 mg/kg/injection, schedule: Q01DX Z (ip), vehicle: saline) is given as 5 of 6; the survivor count (dose: 0.5 mg/kg/injection, schedule: Q01DX Z (ip), vehicle: saline) is listed as 5 of 6.
With `O=C(Nc1ccc(C2=NCCN2)cc1)c1ccc(C(=O)Nc2ccc(C3=NCCN3)cc2)c([N+](=O)[O-])c1`, the T/C (dose: 18.0 mg/kg/injection, schedule: Q01DX010 (ip), vehicle: saline) was 144 % of control.
Turning to `CC[C@H](c1ccc(O)cc1)[C@@H](CC)c1ccc(O)cc1`, the survivor count is 6 of 6 (dose: 250.0 mg/kg/injection, schedule: Q01DX Z (sc), vehicle: steroid suspending solution) and 5 of 6 (dose: 500.0 mg/kg/injection, schedule: Q01DX Z (sc), vehicle: steroid suspending solution).
`[N-]=[N+]=CC(=O)NCC(=O)NN`: the survivor count (dose: 1000.0 mg/kg/injection, schedule: Q01DX Z (ip), vehicle: other) is given as 2 of 6.
For `C[C@]12C=CC(=O)C=C1CC[C@@H]1[C@@H]2C(=O)C[C@@]2(C)[C@H]1CC[C@]2(O)C(=O)CO`, the survivor count by setting is: (dose: 12.5 mg/kg/injection, schedule: Q01DX010 (sc), vehicle: steroid suspending solution) 6 of 6; (dose: 25.0 mg/kg/injection, schedule: Q01DX010 (sc), vehicle: steroid suspending solution) 6 of 6; (dose: 100.0 mg/kg/injection, schedule: Q01DX010 (sc), vehicle: steroid suspending solution) 6 of 6; (dose: 200.0 mg/kg/injection, schedule: Q01DX010 (sc), vehicle: steroid suspending solution) 6 of 6; (dose: 400.0 mg/kg/injection, schedule: Q01DX Z (sc), vehicle: steroid suspending solution) 5 of 6.
Turning to `COc1cc(-c2ccc(Nc3ccccc3C(=O)O)c(OC)c2)ccc1Nc1ccccc1C(=O)O`, the T/C (dose: 50.0 mg/kg/injection, schedule: Q01DX010 (ip), vehicle: saline) was 133 % of control.
